{"sequences": {"note": "Chains of the proteins cited; added tags and fusions are not shown. Lines headed by an entry give the natural chain unless they say otherwise; changes in a name come on top.", "UniProt O75467": "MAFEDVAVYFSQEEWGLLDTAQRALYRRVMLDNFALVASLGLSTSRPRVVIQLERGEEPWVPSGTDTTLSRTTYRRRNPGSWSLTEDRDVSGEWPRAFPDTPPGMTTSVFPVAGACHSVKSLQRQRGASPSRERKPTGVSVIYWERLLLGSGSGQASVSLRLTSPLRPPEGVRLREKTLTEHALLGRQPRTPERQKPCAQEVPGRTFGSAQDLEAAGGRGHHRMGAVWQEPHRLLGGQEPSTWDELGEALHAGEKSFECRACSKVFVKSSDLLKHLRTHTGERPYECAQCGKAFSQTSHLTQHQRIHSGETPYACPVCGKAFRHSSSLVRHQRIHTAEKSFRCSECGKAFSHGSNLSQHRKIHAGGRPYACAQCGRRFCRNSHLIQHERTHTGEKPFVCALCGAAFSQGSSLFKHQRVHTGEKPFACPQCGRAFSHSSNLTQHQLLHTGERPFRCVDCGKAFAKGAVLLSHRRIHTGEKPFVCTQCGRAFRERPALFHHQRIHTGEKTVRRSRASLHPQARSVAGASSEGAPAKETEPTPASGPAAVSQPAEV", "UniProt O75427": "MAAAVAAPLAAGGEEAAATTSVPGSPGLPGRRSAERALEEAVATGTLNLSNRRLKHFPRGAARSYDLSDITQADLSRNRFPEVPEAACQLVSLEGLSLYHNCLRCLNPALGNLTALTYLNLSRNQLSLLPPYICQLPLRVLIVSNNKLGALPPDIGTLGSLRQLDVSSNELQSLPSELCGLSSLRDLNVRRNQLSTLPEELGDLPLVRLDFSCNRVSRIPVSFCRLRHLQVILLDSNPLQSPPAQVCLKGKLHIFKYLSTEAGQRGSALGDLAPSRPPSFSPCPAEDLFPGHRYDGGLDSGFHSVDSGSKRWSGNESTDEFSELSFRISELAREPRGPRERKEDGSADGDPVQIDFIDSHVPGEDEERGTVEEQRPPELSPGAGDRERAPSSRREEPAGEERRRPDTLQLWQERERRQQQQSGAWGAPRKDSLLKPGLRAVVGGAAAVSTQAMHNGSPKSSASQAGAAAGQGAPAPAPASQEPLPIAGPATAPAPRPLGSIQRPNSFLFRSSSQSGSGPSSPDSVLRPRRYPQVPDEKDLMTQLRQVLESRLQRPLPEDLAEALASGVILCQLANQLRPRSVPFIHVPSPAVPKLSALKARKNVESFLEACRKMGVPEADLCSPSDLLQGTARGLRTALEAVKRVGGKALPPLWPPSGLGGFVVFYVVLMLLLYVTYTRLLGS", "UniProt O75879": "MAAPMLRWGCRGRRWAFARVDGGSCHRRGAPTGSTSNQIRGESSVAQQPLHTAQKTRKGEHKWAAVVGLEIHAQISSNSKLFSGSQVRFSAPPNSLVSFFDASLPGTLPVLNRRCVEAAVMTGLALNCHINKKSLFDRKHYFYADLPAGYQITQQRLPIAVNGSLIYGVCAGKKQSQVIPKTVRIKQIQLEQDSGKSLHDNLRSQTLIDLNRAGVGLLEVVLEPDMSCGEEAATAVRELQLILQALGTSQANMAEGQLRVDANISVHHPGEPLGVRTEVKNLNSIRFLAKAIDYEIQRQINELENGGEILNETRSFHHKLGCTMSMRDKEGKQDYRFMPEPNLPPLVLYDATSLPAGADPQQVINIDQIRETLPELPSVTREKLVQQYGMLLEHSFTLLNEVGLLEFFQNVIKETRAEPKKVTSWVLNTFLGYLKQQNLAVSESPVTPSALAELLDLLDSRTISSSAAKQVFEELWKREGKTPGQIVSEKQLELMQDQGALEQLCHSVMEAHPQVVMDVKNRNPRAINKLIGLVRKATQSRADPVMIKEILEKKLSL", "UniProt O75807, whole entry": "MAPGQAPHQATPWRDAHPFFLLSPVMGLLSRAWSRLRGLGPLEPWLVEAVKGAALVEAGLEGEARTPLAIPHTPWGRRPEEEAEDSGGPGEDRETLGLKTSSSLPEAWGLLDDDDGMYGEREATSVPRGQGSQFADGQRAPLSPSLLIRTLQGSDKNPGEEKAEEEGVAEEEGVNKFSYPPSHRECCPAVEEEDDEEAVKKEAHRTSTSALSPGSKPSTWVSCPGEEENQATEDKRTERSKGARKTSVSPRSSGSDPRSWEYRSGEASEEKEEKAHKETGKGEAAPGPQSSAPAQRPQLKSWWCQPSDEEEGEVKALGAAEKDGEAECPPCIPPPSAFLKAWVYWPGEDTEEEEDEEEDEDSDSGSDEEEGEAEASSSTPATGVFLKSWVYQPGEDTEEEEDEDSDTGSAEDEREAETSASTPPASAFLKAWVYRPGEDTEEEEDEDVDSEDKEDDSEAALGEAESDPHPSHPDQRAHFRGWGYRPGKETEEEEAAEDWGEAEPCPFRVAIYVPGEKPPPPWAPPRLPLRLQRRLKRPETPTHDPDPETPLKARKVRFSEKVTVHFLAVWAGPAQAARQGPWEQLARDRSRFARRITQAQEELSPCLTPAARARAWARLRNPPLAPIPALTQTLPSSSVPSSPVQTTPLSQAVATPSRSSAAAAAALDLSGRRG", "UniProt O75976": "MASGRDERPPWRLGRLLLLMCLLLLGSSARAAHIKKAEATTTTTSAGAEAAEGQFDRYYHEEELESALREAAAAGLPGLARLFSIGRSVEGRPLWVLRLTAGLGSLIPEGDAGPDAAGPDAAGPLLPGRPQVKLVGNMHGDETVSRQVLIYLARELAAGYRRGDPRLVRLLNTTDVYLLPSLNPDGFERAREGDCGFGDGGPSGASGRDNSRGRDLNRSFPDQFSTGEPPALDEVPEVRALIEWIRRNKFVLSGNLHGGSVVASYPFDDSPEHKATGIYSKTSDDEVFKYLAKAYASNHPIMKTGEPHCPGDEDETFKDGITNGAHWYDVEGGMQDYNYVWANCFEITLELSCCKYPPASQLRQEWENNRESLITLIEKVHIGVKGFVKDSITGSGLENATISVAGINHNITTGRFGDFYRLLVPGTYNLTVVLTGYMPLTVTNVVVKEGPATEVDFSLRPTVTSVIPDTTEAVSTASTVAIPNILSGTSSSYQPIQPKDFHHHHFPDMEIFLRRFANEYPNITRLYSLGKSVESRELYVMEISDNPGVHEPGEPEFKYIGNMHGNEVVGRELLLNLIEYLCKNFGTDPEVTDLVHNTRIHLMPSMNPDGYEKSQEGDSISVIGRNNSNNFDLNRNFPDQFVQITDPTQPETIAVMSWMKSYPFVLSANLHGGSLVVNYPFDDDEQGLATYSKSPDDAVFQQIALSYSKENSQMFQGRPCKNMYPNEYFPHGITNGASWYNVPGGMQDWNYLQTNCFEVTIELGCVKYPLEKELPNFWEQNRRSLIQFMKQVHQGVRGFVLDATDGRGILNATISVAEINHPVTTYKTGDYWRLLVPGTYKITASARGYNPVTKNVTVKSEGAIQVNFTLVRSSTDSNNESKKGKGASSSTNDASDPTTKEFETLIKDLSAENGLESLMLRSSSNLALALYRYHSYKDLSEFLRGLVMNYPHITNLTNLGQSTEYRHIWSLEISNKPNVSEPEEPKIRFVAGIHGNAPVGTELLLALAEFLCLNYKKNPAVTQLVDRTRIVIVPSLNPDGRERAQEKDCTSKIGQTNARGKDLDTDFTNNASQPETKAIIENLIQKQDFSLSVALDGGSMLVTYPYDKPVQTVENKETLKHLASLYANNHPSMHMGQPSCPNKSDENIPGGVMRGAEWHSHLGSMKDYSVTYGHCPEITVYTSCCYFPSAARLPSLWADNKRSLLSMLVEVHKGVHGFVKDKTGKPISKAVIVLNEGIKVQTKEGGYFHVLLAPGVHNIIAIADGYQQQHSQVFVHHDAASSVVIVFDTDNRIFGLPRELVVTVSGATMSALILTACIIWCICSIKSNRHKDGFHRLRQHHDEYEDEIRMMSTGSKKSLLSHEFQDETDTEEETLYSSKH", "UniProt O75608": "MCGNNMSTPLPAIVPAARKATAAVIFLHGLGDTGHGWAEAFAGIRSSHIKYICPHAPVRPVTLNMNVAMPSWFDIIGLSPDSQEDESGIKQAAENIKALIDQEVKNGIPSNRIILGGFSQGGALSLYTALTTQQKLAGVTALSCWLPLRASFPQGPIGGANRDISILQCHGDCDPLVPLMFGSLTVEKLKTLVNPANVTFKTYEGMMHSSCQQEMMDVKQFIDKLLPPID", "UniProt O95626": "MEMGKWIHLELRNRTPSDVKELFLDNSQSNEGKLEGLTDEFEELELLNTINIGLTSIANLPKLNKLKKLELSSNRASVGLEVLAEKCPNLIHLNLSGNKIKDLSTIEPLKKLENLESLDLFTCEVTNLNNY", "UniProt O94826, whole entry": "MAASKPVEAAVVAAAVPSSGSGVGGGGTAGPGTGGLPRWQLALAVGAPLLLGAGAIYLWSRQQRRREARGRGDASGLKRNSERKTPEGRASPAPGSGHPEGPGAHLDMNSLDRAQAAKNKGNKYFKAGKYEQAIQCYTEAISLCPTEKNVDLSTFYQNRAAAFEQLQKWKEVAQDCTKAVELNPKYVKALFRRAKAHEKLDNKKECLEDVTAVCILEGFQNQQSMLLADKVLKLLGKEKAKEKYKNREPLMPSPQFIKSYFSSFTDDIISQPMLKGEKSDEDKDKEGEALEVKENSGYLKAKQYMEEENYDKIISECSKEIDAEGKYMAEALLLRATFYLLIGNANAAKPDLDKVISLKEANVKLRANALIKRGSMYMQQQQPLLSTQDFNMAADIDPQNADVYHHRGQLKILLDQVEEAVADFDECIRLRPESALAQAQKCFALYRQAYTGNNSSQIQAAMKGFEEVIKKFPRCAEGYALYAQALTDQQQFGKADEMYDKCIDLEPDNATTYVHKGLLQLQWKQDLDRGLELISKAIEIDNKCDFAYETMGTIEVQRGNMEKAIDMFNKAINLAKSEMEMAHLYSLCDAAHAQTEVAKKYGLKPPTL", "UniProt O95402": "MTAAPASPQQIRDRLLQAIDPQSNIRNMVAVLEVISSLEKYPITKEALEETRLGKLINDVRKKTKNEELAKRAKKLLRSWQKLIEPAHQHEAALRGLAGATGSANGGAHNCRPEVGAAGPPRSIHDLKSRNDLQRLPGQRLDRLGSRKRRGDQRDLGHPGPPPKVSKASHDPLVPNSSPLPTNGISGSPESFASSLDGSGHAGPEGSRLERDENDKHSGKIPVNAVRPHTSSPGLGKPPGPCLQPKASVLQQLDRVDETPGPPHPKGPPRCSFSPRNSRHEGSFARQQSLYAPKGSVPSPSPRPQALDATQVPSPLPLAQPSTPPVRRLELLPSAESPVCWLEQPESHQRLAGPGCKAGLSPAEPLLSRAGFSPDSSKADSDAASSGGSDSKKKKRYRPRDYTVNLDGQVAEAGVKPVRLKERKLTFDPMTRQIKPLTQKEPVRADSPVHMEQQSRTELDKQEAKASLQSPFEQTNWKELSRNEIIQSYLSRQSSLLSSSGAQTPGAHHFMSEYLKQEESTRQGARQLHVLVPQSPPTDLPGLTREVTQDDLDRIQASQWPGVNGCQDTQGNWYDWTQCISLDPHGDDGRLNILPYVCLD", "UniProt O75792": "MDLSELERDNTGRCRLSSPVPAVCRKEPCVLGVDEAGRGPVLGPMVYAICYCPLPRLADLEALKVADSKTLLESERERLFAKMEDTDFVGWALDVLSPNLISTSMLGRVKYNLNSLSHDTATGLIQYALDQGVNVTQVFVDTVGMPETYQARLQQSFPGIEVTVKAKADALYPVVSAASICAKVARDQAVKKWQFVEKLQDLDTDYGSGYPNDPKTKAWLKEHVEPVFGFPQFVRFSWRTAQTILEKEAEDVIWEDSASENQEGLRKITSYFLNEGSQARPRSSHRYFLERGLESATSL", "UniProt O95926": "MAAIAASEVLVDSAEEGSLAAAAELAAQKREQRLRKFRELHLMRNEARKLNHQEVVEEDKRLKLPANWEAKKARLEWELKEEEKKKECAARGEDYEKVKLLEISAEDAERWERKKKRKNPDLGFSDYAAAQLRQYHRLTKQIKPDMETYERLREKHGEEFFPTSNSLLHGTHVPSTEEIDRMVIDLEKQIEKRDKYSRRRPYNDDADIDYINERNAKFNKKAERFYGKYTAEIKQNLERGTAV", "UniProt O95870": "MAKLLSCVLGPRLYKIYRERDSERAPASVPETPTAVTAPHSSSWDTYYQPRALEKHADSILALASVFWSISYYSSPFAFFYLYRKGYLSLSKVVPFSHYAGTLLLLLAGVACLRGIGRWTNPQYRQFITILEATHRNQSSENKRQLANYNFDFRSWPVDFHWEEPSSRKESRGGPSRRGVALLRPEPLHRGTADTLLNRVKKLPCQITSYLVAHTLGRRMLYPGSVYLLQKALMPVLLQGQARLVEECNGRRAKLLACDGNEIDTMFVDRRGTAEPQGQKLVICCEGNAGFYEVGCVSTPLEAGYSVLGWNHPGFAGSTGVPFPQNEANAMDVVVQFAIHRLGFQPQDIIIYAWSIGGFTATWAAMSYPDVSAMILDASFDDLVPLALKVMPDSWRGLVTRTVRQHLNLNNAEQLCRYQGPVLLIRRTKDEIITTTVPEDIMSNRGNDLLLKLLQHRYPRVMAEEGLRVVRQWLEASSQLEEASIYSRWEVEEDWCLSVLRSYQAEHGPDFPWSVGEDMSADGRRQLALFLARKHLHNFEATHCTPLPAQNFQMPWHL"}, "source": "the supplement of paper PMC12819154", "about": "“High-throughput peptide-centric local stability assay extends protein–ligand identification to membrane proteins, tissues and bacteria” (Nature Structural & Molecular Biology, 2025)", "note": "Some of the results follow. Most values lie at the level of the controls, where differences are scatter."}
{"compound": "CN[C@@H]1C[C@H]2O[C@@](C)([C@@H]1OC)n1c3ccccc3c3c4c(c5c6ccccc6n2c5c31)C(=O)NC4 [staurosporine]", "assay": "log2 fold change of tryptic peptide abundance, ligand vs vehicle (limited proteolysis) (log2 ratio); higher = more trypsin-susceptible (destabilized)", "details": "ligand concentration: 20 uM; sample: K562 cleared lysate; digestion: 4 min, 22 C (HT-PELSA RT4min, Orbitrap Astral)"}
{"target": "MYCBP2 (peptide sequence: ALPTMEAHQVIK, peptide start residue: 3334) (UniProt O75592)", "log2 fold change": 0.291}
{"target": "ZNF324 (peptide sequence: RVMLDNFALVASLGLSTSRPR, peptide start residue: 28) (UniProt O75467)", "log2 fold change": 0.5}
{"target": "LRCH4 (peptide sequence: IPVSFCR, peptide start residue: 219) (UniProt O75427)", "log2 fold change": 0.331}
{"target": "UniProt O75879 (peptide sequence: LGCTMSMR, peptide start residue: 320)", "log2 fold change": 0.296}
{"target": "TIPRL (peptide sequence: VMPSSFFLLLR, peptide start residue: 174) (UniProt O75663)", "log2 fold change": -0.179}
{"target": "PPP1R15A (peptide sequence: APLSPSLLIR, peptide start residue: 140) (UniProt O75807)", "log2 fold change": 0.608}
{"target": "CPD (peptide sequence: MMSTGSKK, peptide start residue: 1350) (UniProt O75976)", "log2 fold change": -0.163}
{"target": "LYPLA1 (peptide sequence: QFIDKLLPPID, peptide start residue: 220) (UniProt O75608)", "log2 fold change": -0.267}
{"target": "TNFAIP8 (peptide sequence: NLAVQAQK, peptide start residue: 20) (UniProt O95379)", "log2 fold change": -0.122}
{"target": "UniProt O95382 (peptide sequence: QILQGLGYLHDNHIVHR, peptide start residue: 754)", "log2 fold change": -0.74}
{"target": "UniProt O95626 (peptide sequence: DLSTIEPLK, peptide start residue: 102)", "log2 fold change": -0.187}
{"target": "IPO7 (peptide sequence: SPLVAAMQHFLPVLK, peptide start residue: 168) (UniProt O95373)", "log2 fold change": 0.609}
{"target": "UniProt O94826 (peptide sequence: WKEVAQDCTK, peptide start residue: 169)", "log2 fold change": 0.3}
{"target": "KATNA1 (peptide sequence: SLLMISENVK, peptide start residue: 2) (UniProt O75449)", "log2 fold change": 0.204}
{"target": "SOGA1 (peptide sequence: EREEQQHLLAESYSAVMELTR, peptide start residue: 815) (UniProt O94964)", "log2 fold change": 0.64}
{"target": "MED26 (peptide sequence: LTFDPMTR, peptide start residue: 425) (UniProt O95402)", "log2 fold change": 0.382}
{"target": "EML2 (peptide sequence: LLASADDFGK, peptide start residue: 587) (UniProt O95834)", "log2 fold change": 0.154}
{"target": "RNASEH2A (peptide sequence: LQQSFPGIEVTVK, peptide start residue: 153) (UniProt O75792)", "log2 fold change": 0.615}
{"target": "DCTN3 (peptide sequence: YLDPEYIDR, peptide start residue: 67) (UniProt O75935)", "log2 fold change": -0.0597}
{"target": "EPN2 (peptide sequence: EVAEQEER, peptide start residue: 289) (UniProt O95208)", "log2 fold change": -0.28}
{"target": "SYF2 (peptide sequence: RRPYNDDADIDYINER, peptide start residue: 199) (UniProt O95926)", "log2 fold change": 0.265}
{"target": "PRKRA (peptide sequence: HRAAEAAINILK, peptide start residue: 89) (UniProt O75569)", "log2 fold change": 0.705}
{"target": "PSMD10 (peptide sequence: LLVSQGASIYIENKEEK, peptide start residue: 190) (UniProt O75832)", "log2 fold change": -0.28}
{"target": "UniProt O95870 (peptide sequence: GVALLRPEPLHR, peptide start residue: 179)", "log2 fold change": 0.0847}
{"target": "UniProt O75521 (peptide sequence: ATEMLIFGKK, peptide start residue: 296)", "log2 fold change": 0.317}
